# In PubChem BioAssay AID540276 (National Center for Advancing Translational Sciences (NCATS), 2011):
# The campaign covered roughly 300,000 compounds. About 5,400 (1.8%) were called active. This list was built around the results that the source calls inconclusive (neither active nor inactive); the mix of calls is not that of the screen. Calls follow the shape of the full dose curve; tested in HEK293 cells. Potencies beside an inconclusive call are fits to weak or partial responses and may not hold up.
# Assay: qHTS for inhibitors of binding or entry into cells for Marburg Virus
# Conditions: Marburg virus pseudotyped entry inhibition, cell reporter; activity change, negative = inhibition: at 37.8 µM (top of the series) unless noted
# % is scaled to controls: 0 for no effect and ±100 for the full control effect; potency is read from the fitted curve at half-maximal effect.
Compound,Potency,"activity change, negative = inhibition"
CCn1c(C(=O)NCCCc2ccccc2)cc2sccc21,"inconclusive: 2.82 µM [inhibitor, single point]",
CCO[C@@H]1C[C@@]1(C=C[C@@H](C)[C@H](OC)c1ccccc1Br)C(=O)OC,,inactive: -13.6% [at 14.2 µM]
CC(C)OC(=O)CSc1n[nH]c(-c2cccnc2)n1,"inconclusive: 0.13 µM [inhibitor, full curve, poor fit]",
CC1CN(c2oc(COc3ccc(Cl)cc3Cl)nc2C#N)CC(C)O1 (configuration not stated),"inconclusive: 7.08 µM [inhibitor, partial curve]",
O=C1CCC(C(=O)OCC(=O)Nc2cc(Cl)ccc2F)=NN1,,inactive: -2.89%
CCOC(=O)N1CCN(S(=O)(=O)c2cccc3nsnc23)CC1,"inconclusive: 1.78 µM [inhibitor, single point]",
CC1CCc2[nH]c3ccc(C(=O)N(C)CC(=O)Nc4ccc(F)cc4)cc3c2C1 (configuration not stated),"inconclusive: 22.4 µM [inhibitor, partial curve, poor fit]",
CCNc1nc(N)c(C(=C(C#N)C#N)c2ccccc2)s1,"inconclusive: 10 µM [inhibitor, partial curve, poor fit]",
Cc1cc(C)c2c(=O)cc(C(=O)NCCc3ccc(S(N)(=O)=O)cc3)oc2c1,,inactive: -10.4% [at 46.1 µM]
O=C(Cn1cnc2c(nnn2Cc2ccc(F)cc2)c1=O)NCc1ccc(F)cc1,"inconclusive: 7.94 µM [inhibitor, partial curve, poor fit]",
COc1ccc2c3c([nH]c2c1)C(C)=NCC3,"inconclusive: 18.4 µM [inhibitor, partial curve, poor fit]",
CCOc1ccc(N(CC(=O)NC2CCCCC2)C(=O)CNC(=O)c2ccco2)cc1,"inconclusive: 0.891 µM [activator, single point]",
CN1C(=S)N(c2ccccc2)C(=O)/C1=C/c1cccs1,"inconclusive: 11.2 µM [activator, single point]",
CCOc1cc(-c2nc(-c3ccccc3)c(-c3cc([N+](=O)[O-])ccc3C)[nH]2)ccc1O,"inconclusive: 25.9 µM [inhibitor, single point]",
COc1ccccc1C(=O)NCCn1cc(SCC(=O)NCc2ccco2)c2ccccc21,"inconclusive: 29.1 µM [inhibitor, single point]",
CN1CCc2c(sc(/N=C/c3c[nH]c4ccccc34)c2C#N)C1,"inconclusive: 3.16 µM [activator, partial curve, poor fit]",
O=[N+]([O-])c1ccc(COc2cccnc2)cc1,"inconclusive: 5.62 µM [activator, single point]",
O=C1NC(=NCc2ccccc2)NC1(c1ccccc1)c1ccccc1,"inconclusive: 14.1 µM [inhibitor, single point]",
Cc1cccc(CN2CCc3c(OCC(=O)N4CCCc5ccccc54)cccc3C2=O)c1,"inconclusive: 35.5 µM [inhibitor, single point]",
O=C(CNC(=O)c1ccccc1)OCC(=O)N1c2ccccc2Sc2ccccc21,"inconclusive: 0.562 µM [inhibitor, full curve, poor fit]",
O=S(=O)(c1cccc(C(F)(F)F)c1)N1CCC(c2nc3ccccc3[nH]2)CC1,"inconclusive: 3.16 µM [inhibitor, full curve, poor fit]",

# Grouped by structure, those above with two or more sulfur atoms.
Compound,Potency,"activity change, negative = inhibition"
CCOC(=O)N1CCN(S(=O)(=O)c2cccc3nsnc23)CC1,"inconclusive: 1.78 µM [inhibitor, single point]",
CN1C(=S)N(c2ccccc2)C(=O)/C1=C/c1cccs1,"inconclusive: 11.2 µM [activator, single point]",

# Continued.

Compound,Potency,"activity change, negative = inhibition"
Cc1ccc(S(=O)(=O)Nc2cc(C)c(O)c(Sc3n[nH]c(C)n3)c2)cc1,"inconclusive: 35.5 µM [inhibitor, single point]",
CCNC(=S)N/N=C/c1cn(Cc2ccc(F)cc2)c2ccccc12,"inconclusive: 10 µM [inhibitor, partial curve, poor fit]",
COc1ccc(NS(=O)(=O)c2ccc3c(c2)CCN3C(=O)C2CC2)cc1OC,"inconclusive: 3.55 µM [inhibitor, full curve, poor fit]",
Cc1ccc(C2=N/C(=C\N(C)C)C(=O)O2)cc1,"inconclusive: 29.1 µM [activator, single point]",
Cc1ccc(-n2c(=O)[nH]cc(C(=O)N3CCc4ccccc43)c2=O)cc1,,inactive: 0.21%
O=C(NCCCN1CCOCC1)c1ccc(S(=O)(=O)N2CCOCC2)cc1,,inactive: -12.2%
CCCc1[nH]n(-c2nc3ccccc3s2)c(=O)c1C=NCCN1CCOCC1,inactive,
O=C(c1ccc2c(=O)n(C3CCCC3)c(=S)[nH]c2c1)N1CCN(C2CCCCC2)CC1,,inactive: -2.55%
Cc1n[nH]c2c([N+](=O)[O-])c(=O)[nH]c(=O)n12,"inconclusive: 10 µM [inhibitor, single point]",
Cc1cccc(C(=O)NC(=S)Nc2ccccc2C(=O)O)c1,,inactive: -0.936%
O=C(Nc1ccc2ccccc2c1)N1CCN(c2ncccc2C(F)(F)F)CC1,"inconclusive: 6.51 µM [inhibitor, single point]",
CCCCn1c(N)c(N(CCOC)C(=O)c2cc(S(=O)(=O)N3CCCCC3)ccc2Cl)c(=O)[nH]c1=O,,inactive: 6.27%
CC(=O)NC(Cc1c[nH]c2ccccc12)C(=O)N1CCN(S(=O)(=O)c2ccccc2)CC1 (configuration not stated),"inconclusive: 0.562 µM [activator, single point]",
COc1ccc(/C=C/C(O)=C2/C(=O)N(C)C3(C)CC2c2ccccc2O3)cc1 (configuration not stated),active: 8.2 µM,
CC(C)c1ccc(/C=N/NC(=O)c2c(Cl)cnn2C)cc1,"inconclusive: 1.46 µM [activator, full curve, poor fit]",
CCCc1nc2c(sc3nc4c(cc32)COC(C)(C)C4)c(=O)n1Cc1ccco1,"inconclusive: 6.51 µM [inhibitor, partial curve, poor fit]",
Cc1cc(C(=O)OCC(=O)Nc2ccc(F)c(F)c2F)c(C)o1,,inactive: -0.664% [at 46.1 µM]
Cc1cccc(C)c1Nc1c(-c2ccsc2)nc2ncccn12,"inconclusive: 2.24 µM [inhibitor, partial curve, poor fit]",
COc1cc(Cl)c(C)cc1NC(=O)CSc1cc(=O)n(C)c2cc(Cl)ccc12,,inactive: 1.1% [at 46.1 µM]
CSc1ccccc1NC(=O)C1C2CCC(C2)C1C(=O)O (configuration not stated),,inconclusive: 24.3% [activator] [at 46.1 µM]
O=C1Nc2cc(Cl)c(Cl)cc2N(O)N1c1ccccc1,,inactive: 3.28%
